# From the supplement of paper PMC12067093, “Discovery and optimisation of a covalent ligand for TRIM25 and its application to targeted protein ubiquitination” (Chemical Science, 2025)
# This is one part of the list.
# Compound: Cc1cc(ccc1-c1ccccc1)C(=O)N1CCCN(CC1)C(=O)CCl [compound 10]
# Test: probe-labelled cysteine peptide fold change vs DMSO (competition) (log2 fold change); higher = less target engagement (more negative = stronger competition)
# Conditions: THP-1, incubation time: 4 h
# 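Note: competitive profiling in live THP-1 cells: cysteine peptides tagged with an iodoacetamide desthiobiotin (IA-DTB) probe, intensity after compound treatment relative to DMSO-treated cells.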
Target,probe-labelled cysteine peptide fold change (10 µM),probe-labelled cysteine peptide fold change (50 µM)
OAS3_Q9Y6K5_73_GGCDSELVIFLDCFK (UniProt Q9Y6K5),-0.116,0.158
NUP155_O75694_433_GILLMAASENEDNDILWCVNHDTFPFQK (UniProt O75694),0.304,0.47
NUFIP2_Q7Z417_234_GCENLNIVQDK (UniProt Q7Z417),-0.0267,-0.0796
NUP160_Q12769_1166_RNHDGECTAAPTNR (UniProt Q12769),-0.145,-0.199
NUBP1_P53384_235_VKLPIIGVVENMSGFICPK (UniProt P53384),0.135,-0.223
NUDT8_Q8WV74_71_CDPADQDVVHTALR (UniProt Q8WV74),-0.128,0.143
NUMA1_Q14980_160_APVPSTCSSTFPEELSPPSHQAK (UniProt Q14980),-0.186,-0.219
NUP153_P49790_874_CLACESAKPGTK (UniProt P49790),0.15,-0.253
NUMA1_Q14980_80_HPSSPECLVSAQK (UniProt Q14980),-0.09,-0.146
NUP50_Q9UKX7_428_NNVLIVCVPNPPIDEK (UniProt Q9UKX7),-0.0233,0.127
NUDT21_O43809_144_QDGVLQDWVIDDCIGNWWRPNFEPPQYPYIPAHITKPK (UniProt O43809),0.0744,0.0879
OLA1_Q9NTK5_117_GAHNGQGLGNAFLSHISACDGIFHLTR (UniProt Q9NTK5),0.031,-0.0398
NUP98_P52948_1027_ADTSQEICSPR (UniProt P52948),-0.0594,0.217
NUS1_Q96E22_184_YSPEFANSNDKDDQVLNCHLAVK (UniProt Q96E22),0.0563,-0.361
OCRL_Q01968_611_LNDSQYCK (UniProt Q01968),0.0459,0.00174
NUDCD1_Q96RS6_111_EVFRLPTDLTACDNR (UniProt Q96RS6),-0.159,-0.335
NUMB_P49757_611_HTEVPTGTCPVDPFEAQWAALENK (UniProt P49757),-0.152,-0.381

Target,probe-labelled cysteine peptide fold change (10 µM),probe-labelled cysteine peptide fold change (50 µM)
NXF1_Q9UBU9_588_CLQDNNWDYTR (UniProt Q9UBU9),0.252,0.41
OARD1_Q9Y530_24_GDLFACPK (UniProt Q9Y530),0.271,-0.025
NUP205_Q92621_141_CIANSLK (UniProt Q92621),-0.163,0.179
NUP88_Q99567_561_DIAPPPEECLQLLSR (UniProt Q99567),-0.146,0.267
NUDT8_Q8WV74_39_ARPASAAVLVPLCSVR (UniProt Q8WV74),0.0823,0.138
NUP43_Q8NFH3_222_QQGNEPSQILSLTGDRVPLHCVDR (UniProt Q8NFH3),-0.0219,0.0145
NUP155_O75694_373_LYFSTCPFR (UniProt O75694),0.0117,0.486
OGT_O15294_315_GSVAEAEDCYNTALR (UniProt O15294),0.0959,0.062
NUP50_Q9UKX7_151_ACVGNAYHK (UniProt Q9UKX7),-0.233,-1.01
OBSL1_O75147_738_VVLTCELSR (UniProt O75147),0.0557,0.341
NUDCD1_Q96RS6_376_DSAQCAAIAER (UniProt Q96RS6),-0.311,-0.677
NUDT7_P0C024_72_RAPGEVCFPGGK (UniProt P0C024),-0.0211,-0.558
NUP98_P52948_1636_HLEALCLFK (UniProt P52948),0.0131,0.0374
OBSL1_O75147_209_LPDSGVYVCHAR (UniProt O75147),5.8e-05,0.035
OGFOD1_Q8N543_64_RTPFSHEVIVMDMDPFLHCVIPNFIQSQDFLEGLQK (UniProt Q8N543),0.0867,-0.154
OGA_O60502_896_LGCFEIAK (UniProt O60502),0.187,-0.238
NUDT9_Q9BW91_347_DAHWSEDSEADCHAL (UniProt Q9BW91),-0.118,-0.189
